These are yes or no findings as the source states them, for the method shown. In cells and extracts the contact can be indirect. A result given as binding can be weak or reduced; the word gives no strength. Tags and fused reporters may be left off the sequences shown.

Protein sequences, listed by entry. Tags and fused reporters are not part of them. Lines headed by an entry give the natural chain unless they say otherwise; changes in a name come on top.
UniProt P30048: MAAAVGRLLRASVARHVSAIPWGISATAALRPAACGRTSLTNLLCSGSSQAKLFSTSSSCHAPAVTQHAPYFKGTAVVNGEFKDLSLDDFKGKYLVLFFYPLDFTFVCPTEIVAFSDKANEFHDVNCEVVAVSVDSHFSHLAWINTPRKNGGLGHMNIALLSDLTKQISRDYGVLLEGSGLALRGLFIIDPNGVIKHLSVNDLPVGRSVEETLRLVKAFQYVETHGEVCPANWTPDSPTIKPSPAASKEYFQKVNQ

The test deals with T1, Flag-PHB, full-length (human) (UniProt P35232).
T1 sequence: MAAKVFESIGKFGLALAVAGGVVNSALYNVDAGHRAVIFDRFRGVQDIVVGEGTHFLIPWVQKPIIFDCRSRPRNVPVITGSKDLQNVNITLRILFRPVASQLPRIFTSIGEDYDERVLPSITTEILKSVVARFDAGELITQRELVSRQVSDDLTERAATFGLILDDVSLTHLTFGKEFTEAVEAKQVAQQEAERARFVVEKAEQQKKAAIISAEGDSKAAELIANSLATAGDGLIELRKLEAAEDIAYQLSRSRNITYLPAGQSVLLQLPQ
The test can be described thus: co-IP; HEK293 cells co-transfected with HA-PRDX3 and full-length or truncated Flag-PHB for 48 h; NP-40 lysis buffer.

In the case of HA-PRDX3 (from UniProt P30048), the binding result is listed as “binds”.

For the origin of these results see paper PMC8211793.
